The values that follow come from PMC4742189.

The assay concerns the target myeloid cell leukemia 1 (Mcl-1) (human (endogenous in SF188)), Q07820. Nature of the assay: co-IP; Dynabeads Co-Immunoprecipitation Kit; magnetic beads conjugated with monoclonal mouse anti-Mcl-1 (clone 22) or non-specific mouse IgG; whole-cell extracts of SF188 cells treated 6 h with ABT263, TIC10/ONC201, both or solvent under serum starvation; lysates incubated 30 min at 4°C; immunoblot for Mcl-1, Noxa and BIM. As to conditions: remark: other sources report otherwise. (In general: A western blot detects proteins with antibodies after separation by electrophoresis.)

Results are given in words; binding and its absence hold for the method and conditions named. In cells and extracts the contact can be indirect. Some binding calls cover weakened binding; strength is not graded here.

B1: Noxa, Q13794 1-54 (protein)
chain: MPGKKARKNAQPSPARAPAELEVECATQLRRFGDKLNFRQKLLNLISKLFCSGT
As to B1, the binding entry is given as “binds”.
